Data source: PubChem BioAssay AID1259425 (University of Nebraska Medical Center, 2018)
Purpose: 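Compare each knockdown with KSR1 silencing using changes in marker transcripts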 (primary screen). Cells: HCT116 human colon cancer cells. Knock-down reagent: siRNA pool against human genes, 50 nM siRNA. Measurement: 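After 50 nM siRNA pool, branched-DNA assay measures six marker transcripts per well, minus blank, normalised to the geometric mean of two housekeeping transcripts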. Direction: BNIP3L mRNA: higher = more BNIP3L transcript after knockdown.
The whole screen tested about 14,000 reagents; shown is a random part of them. Further read-outs or replicates are left out here. No sequences are given here. Not given: the time to read-out.

Gene | BNIP3L mRNA, set 1
ZDHHC5 | 0.185
XKR6 | 0.249
PRDX6 | 0.107
UBAC1 | 0.112
PER2 | 0.0352
NDFIP2 | 0.0403
SLC6A13 | 0.121
HOXA4 | 0.0439
PTPA | 0.112
NUMB | 0.122
ZSCAN18 | 0.138
NPY | 0.216
SLCO1A2 | 0.0718
SUCLG2 | 0.279
PLEKHG1 | 0.209
HCFC1R1 | 0.293
CDC14C | 0.0922
SLC8A2 | 0.126
CDK11A | 0.0698
SSBP1 | 0.138
PNMA6A | 0.394
LAIR1 | 0.0905
SLC39A9 | 0.0655
VAMP5 | 0.0877
SMNDC1 | 0.116
ZNF136 | 0.0638
SARNP | 0.126
FADS2 | 0.184
ROS1 | 0.0413
GIGYF1 | 0.0974
MNT | 0.0542
FOXD4 | 0.043
TSN | 0.125
ACOT13 | 0.0901
AAR2 | 0.0968
SKIC8 | 0.118
B3GNT3 | 0.128
CACFD1 | 0.103
UQCRB | 0.099
PACSIN1 | 0.132
CLCN1 | 0.0296
AOC2 | 0.112
GIMAP5 | 0.0598
C1QB | 0.12
THYN1 | 0.149
FSTL1 | 0.154
CREB5 | 0.04
ATP1B4 | 0.121
SLC24A3 | 0.165
MED20 | 0.227
TOP1MT | 0.122
COL5A1 | 0.118
DCAF16 | 0.122
ARHGEF15 | 0.0821
CNGA3 | 0.0758
ATN1 | 0.0625
WDR47 | 0.108
ELOVL3 | 0.0814
BGLAP | 0.157
MAOB | 0.117
ZBTB7A | 0.0856
CD96 | 0.232
HOXC9 | 0.105

Ordered by “BNIP3L mRNA, set 1” (ascending): 8 of the entries above.
Gene | BNIP3L mRNA, set 1
CDK11A | 0.0698
LAIR1 | 0.0905
CDC14C | 0.0922
SLC8A2 | 0.126
SSBP1 | 0.138
PLEKHG1 | 0.209
HCFC1R1 | 0.293
PNMA6A | 0.394
